Values from PubChem BioAssay AID1259405 (NCATS, 2018).
Here is an unselected part of about 50,000 deposited reagents. Over the whole deposit, about 4,000 (8%) were called active. 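Mouse siRNA library applied to hamster cells; one well for each siRNA.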 Unmarked entries are inactive. Reagents against one gene are numbered here.

Purpose: 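Knock-downs that lift recombinant protein yield in hamster ovary cells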 (primary screen)
Cells: Chinese hamster CHO-K1 ovary cells with stable secreted eGFP expression
Reagents: single siRNA against mouse genes, 0.8 pmol siRNA per well (2 µl of 400 nM stock)
Timing: 3 days
Measured: 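Per-well intracellular GFP measured by laser scanning cytometry, plus viability from ATP luminescence, each relative to plate median of non-targeting control wells, in %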
Scale: GFP, % of control: higher = more GFP per well, higher productivity; viability (ATP), % of control: higher = more viable cells (more ATP)
Call rule: 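Called active when intracellular GFP, relative to negative control, is at or above 120%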

Gene,reagent no.,"GFP, % of control","viability (ATP), % of control"
Gtf2a1l (GeneID 71828),1,82.7,84.6
Gtf2a1l (GeneID 71828),2,68.8,81.1
Spn (GeneID 20737),1,81.6,88.6
Spn (GeneID 20737),2,84.3,103
Spn (GeneID 20737),3,120 (active),150
Rgp1 (GeneID 242406),1,65.7,67.1
Rgp1 (GeneID 242406),2,84.8,81.3
Rgp1 (GeneID 242406),3,123 (active),120
Hira (GeneID 15260),1,48.8,70.3
Hira (GeneID 15260),2,39.6,72.2
Hira (GeneID 15260),3,85.1,51.5
Pde2a (GeneID 207728),1,110,89.8
Pde2a (GeneID 207728),2,61.3,54.6
Pde2a (GeneID 207728),3,71.6,51.4
Krt85 (GeneID 53622),1,78.6,97.6
Krt85 (GeneID 53622),2,31.9,39.4
Krt7 (GeneID 110310),1,34.1,48.5
Krt7 (GeneID 110310),2,86.8,85.5
Adam1a (GeneID 280668),1,72.5,111
Adam1a (GeneID 280668),2,65.7,80.1
Adam1a (GeneID 280668),3,68.5,100
Pitpnb (GeneID 56305),1,70.6,92.3
Pitpnb (GeneID 56305),2,163 (active),90.2
Lgsn (GeneID 266744),1,74,71.6
Lgsn (GeneID 266744),2,61.3,84.9
Lgsn (GeneID 266744),3,99.6,180
Hip1r (GeneID 29816),1,55.1,62.1
Hip1r (GeneID 29816),2,55.3,63.7
Hip1r (GeneID 29816),3,56.5,43.2
Tfap4 (GeneID 83383),1,104,76.2
Tfap4 (GeneID 83383),2,84.8,70.4
Tfap4 (GeneID 83383),3,67.9,70.7
Or8a1b (GeneID 80706),1,65.9,53.5
Or8a1b (GeneID 80706),2,104,39.2
Or8a1b (GeneID 80706),3,61.5,92.2
Itgb4 (GeneID 192897),1,86.6,70.5
Itgb4 (GeneID 192897),2,62.8,61.9
Ttll9 (GeneID 74711),1,89.9,73.5
Ttll9 (GeneID 74711),2,61.6,69.6
Ttll9 (GeneID 74711),3,55.6,59.1
Cxadr (GeneID 13052),1,53.1,64.4
Cxadr (GeneID 13052),2,18.3,32.1
Cxadr (GeneID 13052),3,119,73.6
Atf5 (GeneID 107503),1,66.1,67.4
Atf5 (GeneID 107503),2,97,74.8
Ropn1l (GeneID 252967),1,110,92.3
Ropn1l (GeneID 252967),2,84.5,59.7
Ropn1l (GeneID 252967),3,43.8,57.2
Ppp1r3f (GeneID 54646),1,119,91.5
Ppp1r3f (GeneID 54646),2,80.5,70.4
Ppp1r3f (GeneID 54646),3,74.3,63.1
Wdr47 (GeneID 99512),1,71.9,78.8
Wdr47 (GeneID 99512),2,44.2,57.5
Wdr47 (GeneID 99512),3,77.1,72.6
Anks4b (GeneID 72074),1,54.7,65.2
Anks4b (GeneID 72074),2,84.5,88.8
Anks4b (GeneID 72074),3,84.5,87.7
Psme1 (GeneID 19186),1,60.6,55.3
Psme1 (GeneID 19186),2,74.8,60.5
Psme1 (GeneID 19186),3,108,72
Defb40 (GeneID 360217),1,58.5,89.7
Defb40 (GeneID 360217),2,70.3,47.2
Defb40 (GeneID 360217),3,93.3,41.4
Prkag3 (GeneID 241113),1,68.9,64.2
Prkag3 (GeneID 241113),2,68,81.1
Gmip (GeneID 78816),1,52.9,125
Gmip (GeneID 78816),2,80.8,82.2
Ulk2 (GeneID 29869),1,84.3,92.7
Ulk2 (GeneID 29869),2,81.9,78.5
Ulk2 (GeneID 29869),3,59.3,76.9
Or12d15 (GeneID 257893),1,84.7,58.9
Or12d15 (GeneID 257893),2,99.2,54.5
Or12d15 (GeneID 257893),3,62.3,81.1
Agtr1b (GeneID 11608),1,73.6,66.1
Agtr1b (GeneID 11608),2,80.7,72.1
Agtr1b (GeneID 11608),3,80.2,58.2
Zfp398 (GeneID 272347),1,52.2,63.9
Zfp398 (GeneID 272347),2,65.3,74.8
Zfp398 (GeneID 272347),3,65,74.5
Surf2 (GeneID 20931),1,84.5,70.5
Surf2 (GeneID 20931),2,103,98.3
Surf2 (GeneID 20931),3,74.1,72.4
Rtl3 (GeneID 213436),1,130 (active),96.5
Rtl3 (GeneID 213436),2,50,44.3
Rtl3 (GeneID 213436),3,86.5,83.5

Look-ups from above.
Under “viability (ATP), % of control”, Agtr1b (GeneID 11608) #1 has 66.1
Ulk2 (GeneID 29869) #1, GFP, % of control → 84.3
Under “viability (ATP), % of control”, Hira (GeneID 15260) #3 is entered as 51.5
Value for Prkag3 (GeneID 241113) #1 under “viability (ATP), % of control”: 64.2
Under “GFP, % of control”, Agtr1b (GeneID 11608) #3 is entered as 80.2
Gtf2a1l (GeneID 71828) #2, GFP, % of control: 68.8
